According to PubChem BioAssay AID1487 (National Center for Advancing Translational Sciences (NCATS), 2009):
This is one part of the list. The main result of the screen is listed elsewhere. These columns were measured beside it and carry no call. Most of these compounds were active or inconclusive in the main read-out, so they are no random draw. The note in brackets gives the kind of curve behind each potency; many fits are weak.

Assay: qHTS Assay for Modulators of Lamin A Splicing
Conditions: HeLa LMNA splicing GFP/RFP minigene ratio, 48 h
Outline: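 Read-out is the ratio of GFP to DsRed2 object intensity, acquired by 488 nm laser-scanning cytometry on HeLa lamin A-EGFP minigene reporter cells. Compound incubation 48 hrs at 37 °C in Opti-MEM with 2% FBS; DMSO 0.5% final.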

[1] = measured here: GFP splicing reporter channel
[2] = measured here: RFP viability control channel

Row | SMILES | AC50 [1] | AC50 [2]
1 | COc1ccc(CCC(=O)NCCc2csc(-c3ccc(Cl)cc3)n2)cc1 | 7.94 µM [falling, full curve, poor fit] | 
2 | CCN(CC(=O)NCc1ccc(F)cc1)C(=O)/C=C/c1ccco1 | 0.631 µM [falling, full curve, poor fit] | 0.447 µM [falling, partial curve, poor fit]
3 | Cc1ccc(NC(=O)COC(=O)c2ccc([N+](=O)[O-])s2)c(C)c1 | 0.0316 µM [falling, full curve, poor fit] | 
4 | CCOC(=O)c1c(N)sc(C(=O)N2CCCCCC2)c1C |  | 0.141 µM [rising, single point]
5 | O=C(CC1SC(=Nc2ccccc2)N(Cc2ccccn2)C1=O)Nc1cccc(Cl)c1 (stereo unspecified) | 17.8 µM [falling, single point] | 
6 | N#Cc1cc(-c2ccccc2)oc1NC(=O)c1ccccc1 | 12.6 µM [rising, partial curve] | 35.5 µM [rising, single point]
7 | CCCCn1nnnc1NCc1cc(OC)c(OC)cc1OC |  | 35.5 µM [rising, single point]
8 | CC1=C(C)CS(=O)N(S(=O)(=O)c2ccc(Cl)cc2)C1 (stereo unspecified) | 35.5 µM [falling, single point] | 35.5 µM [falling, single point]
9 | O=C(NCc1ccco1)/C(=C/c1ccc(C(F)(F)F)cc1)c1nc2ccccc2[nH]1 | 6.31 µM [rising, full curve] | 4.47 µM [rising, partial curve]
10 | COc1ccc(Nc2ccc(N3C(=O)CC(C)C3=O)cc2[N+](=O)[O-])cc1OC (stereo unspecified) | 0.0398 µM [rising, full curve] | 
11 | N=C(N)Cc1ccccc1Sc1ccccc1 | 28.2 µM [rising, single point] | 31.6 µM [rising, single point]
12 | O=C1O/C(=C\C(=O)N2CCOCC2)c2ccccc21 | 6.31 µM [falling, single point] | 5.62 µM [falling, single point]
13 | CCc1ccc(C2=NN(CCC(=O)NCCc3ccc(Cl)cc3)C(=O)CC2)cc1 | 11.2 µM [rising, partial curve, poor fit] | 12.6 µM [rising, partial curve]
14 | CC(=O)N1CCCc2cc(S(=O)(=O)N3CCCC(C(=O)N4CCN(c5cc(C)ccc5C)CC4)C3)ccc21 (stereo unspecified) |  | 0.02 µM [rising, full curve, poor fit]
15 | O=C(O)C1CCCCC1C(=O)Nc1cc(C(F)(F)F)ccc1Cl (stereo unspecified) | 20 µM [falling, partial curve, poor fit] | 0.0224 µM [falling, full curve, poor fit]
16 | Cc1nc(NCc2cccnc2)c2c3c(sc2n1)CCCC3 | 0.00355 µM [rising, full curve, poor fit] | 
17 | Oc1c(CN2CCN(c3ccccn3)CC2)cc(Cl)c2cccnc12 |  | 12.6 µM [rising, partial curve]
18 | N#CCCN/N=C(\Cc1nc2ccccc2[nH]1)c1ccccc1 |  | 15.8 µM [rising, single point]
19 | O=C(Nc1cccc(S(=O)(=O)Nc2ccc(Cl)cc2)c1)c1ccc(Cl)nc1 |  | 0.562 µM [rising, full curve, poor fit]
20 | CCOC(=O)Cn1nnnc1C(C(C)C)N(Cc1cc2c(C)cc(C)cc2[nH]c1=O)C1CCCC1 (stereo unspecified) |  | 31.6 µM [rising, single point]
21 | C=CCN1CCc2c(cc(O)c(O)c2Br)[C@@H](c2ccccc2)C1 | 22.4 µM [falling, single point] | 
22 | CCOC(=O)c1cnc2ccc(OCC)cc2c1N(C)Cc1ccccc1 | 2 µM [rising, single point] | 12.6 µM [rising, single point]
23 | O=C(COc1cccc2ccccc12)N1CCN(c2ccccc2)CC1 | 11.2 µM [rising, partial curve] | 17.8 µM [rising, single point]
24 | O=C(COC(=O)c1ccc(Cl)nc1)NCc1cccs1 |  | 1.41 µM [falling, partial curve, poor fit]
25 | O=C(Nc1ccc(Cl)cc1)Nc1ccc(N2CCCC2)c(S(=O)(=O)Nc2ccccc2Cl)c1 |  | 5.62 µM [rising, single point]
26 | Cc1ccc(/C=C2/SC(=S)N(CCC(=O)N3CCN(C)CC3)C2=O)cc1 |  | 28.2 µM [rising, single point]
27 | COc1ccccc1N1CCN(C(=O)COc2ccc(Cl)cc2Br)CC1 | 20 µM [rising, partial curve, poor fit] | 25.1 µM [rising, single point]

Three compounds already listed, ordered by molar mass, high to low:
Row | SMILES | AC50 [1] | AC50 [2]
14 | CC(=O)N1CCCc2cc(S(=O)(=O)N3CCCC(C(=O)N4CCN(c5cc(C)ccc5C)CC4)C3)ccc21 (stereo unspecified) |  | 0.02 µM [rising, full curve, poor fit]
5 | O=C(CC1SC(=Nc2ccccc2)N(Cc2ccccn2)C1=O)Nc1cccc(Cl)c1 (stereo unspecified) | 17.8 µM [falling, single point] | 
24 | O=C(COC(=O)c1ccc(Cl)nc1)NCc1cccs1 |  | 1.41 µM [falling, partial curve, poor fit]

Carrying on.

Row | SMILES | AC50 [1] | AC50 [2]
28 | CCOC(=O)CC(=O)CSc1nc(-c2cccnc2)ccc1C#N | 0.0562 µM [falling, full curve, poor fit] | 0.0501 µM [falling, full curve]
29 | O=C(NCCO)C1CCN(C(=O)c2ccc(-c3ccccc3)cc2)CC1 |  | 39.8 µM [falling, partial curve, poor fit]
30 | CC(C)(C)OC(=O)COc1cc(O)c2c(=O)cc(-c3ccccc3)oc2c1 |  | 10 µM [rising, partial curve]
31 | CCOc1cccc2sc(N(CCN(CC)CC)C(=O)c3ccco3)nc12 | 10 µM [falling, partial curve, poor fit] | 
32 | Cc1ccc2nc(-c3ccc(NC(=S)NC(=O)C(C)C)cc3)sc2c1 | 0.398 µM [falling, full curve, poor fit] | 
33 | CC(C)NC(=O)CSc1nnc(C2CC2)n1-c1ccccc1 | 14.1 µM [falling, single point] | 14.1 µM [falling, partial curve]
34 | Cc1ccc(-n2[nH]c(C)c(/C=N/N3C(=O)c4cccc5cccc(c45)C3=O)c2=O)cc1 | 12.6 µM [falling, partial curve, poor fit] | 
35 | COc1ccc(NC(=O)CCN2CCN(S(=O)(=O)c3cc(Cl)ccc3Cl)CC2)cc1 | 35.5 µM [rising, single point] | 35.5 µM [rising, single point]
36 | CCC(C)NC(=O)c1nc2c(nnn2Cc2ccccc2Cl)c(=O)[nH]1 (stereo unspecified) | 2.24 µM [rising, partial curve] | 1.41 µM [rising, partial curve]
37 | O=C(NC(=S)Nc1cnc2ccccc2c1)c1ccccc1 |  | 0.0316 µM [falling, full curve, poor fit]
38 | Cc1sc2nc(CSc3ccccc3)nc(N3CCOCC3)c2c1C | 20 µM [rising, single point] | 0.282 µM [rising, full curve, poor fit]
39 | CN(CC(=O)Nc1ccc(Cl)cc1)CC(=O)Nc1cc(Cl)ccc1C#N | 35.5 µM [rising, single point] | 31.6 µM [rising, single point]
40 | CCOC(=O)c1ccc(NC(=O)CN2C(=O)NC3(CCC(C)CC3)C2=O)cc1 (stereo unspecified) | 0.355 µM [falling, full curve, poor fit] | 
41 | Cc1cccc(-n2c(SCC(=O)c3ccccc3)nnc2-c2ccc(Br)cc2)c1 |  | 10 µM [falling, partial curve]
42 | O=C1C(Cc2c[nH]c3ccccc23)NC(=S)N1Cc1ccccc1 (stereo unspecified) | 3.98 µM [rising, single point] | 
43 | Cc1cc(NC(=O)Nc2cccc([N+](=O)[O-])c2)no1 | 0.02 µM [falling, full curve, poor fit] | 
44 | COc1ccccc1N1CCN(C(=O)c2cc3ccc4ccc(C)[nH]c4c3n2)CC1 |  | 14.1 µM [rising, single point]
45 | O=S(=O)(c1cccc2nsnc12)N1CCN(C/C=C/c2ccccc2)CC1 | 25.1 µM [rising, partial curve, poor fit] | 35.5 µM [rising, single point]
46 | O=C(COc1ccccc1)Nc1ccc2c(c1)C(=O)N(CC1CCCO1)C2=O (stereo unspecified) | 0.282 µM [rising, full curve] | 
47 | Cc1cccc(C2(c3cccc(C)c3)CC2C(=O)Nc2ccc([N+](=O)[O-])cc2O)c1 (stereo unspecified) | 35.5 µM [falling, single point] | 2.82 µM [rising, single point]
48 | COc1cc2cc(CN(CCCN3CCOCC3)C(=O)Nc3ccccc3F)c(=O)[nH]c2cc1OC | 0.282 µM [rising, full curve] | 0.2 µM [rising, full curve]
49 | Cc1nc(Nc2ccc(S(=O)(=O)N3CCCC3)cc2)c2nnn(Cc3ccccc3)c2n1 |  | 0.316 µM [rising, partial curve, poor fit]
50 | COc1ccc(C(=O)O/N=C(\N)Cc2ccc(Cl)c(Cl)c2)cc1OC | 25.1 µM [falling, partial curve] | 22.4 µM [falling, partial curve]
51 | Cc1nc(N2CCN(c3ccccc3)CC2)c2c3c(sc2n1)CCC3 | 14.1 µM [rising, partial curve] | 28.2 µM [rising, single point]
52 | Cc1cccc(-n2c(O)c(C=NCCCN3CCOCC3)c3ccccc3c2=O)c1 |  | 17.8 µM [rising, single point]
53 | CCC(=O)Nc1ccc(C(=O)NCc2ccccn2)cc1 |  | 0.0251 µM [falling, full curve, poor fit]
54 | Cc1cc(C)n(Cc2ccc(NC(=O)c3nn(C)cc3[N+](=O)[O-])cc2)n1 | 28.2 µM [falling, single point] | 
